PubChem BioAssay AID1259425 | University of Nebraska Medical Center | 2018
Screen: 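Seek colon cancer weak points whose silencing resembles KSR1 loss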 (primary screen). System: HCT116 human colon cancer cells. Reagent: siRNA pool against human genes, 50 nM siRNA. Read-out: 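After 50 nM siRNA pool, branched-DNA assay measures six marker transcripts per well, minus blank, normalised to the geometric mean of two housekeeping transcripts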. Reading the numbers: BNIP3L mRNA: higher = more BNIP3L transcript after knockdown.
In all, the deposit lists about 14,000 reagents; below is an unselected part. Further read-outs or replicates are left out here. Not given: the time to read-out.

gene | PubChem SID | BNIP3L mRNA, set 1
HSD11B2 | SID363991532 | 0.1
SMARCC1 | SID363994219 | 0.0544
GC | SID363991901 | 0.144
NETO2 | SID364000774 | 0.112
SLIRP | SID364003549 | 0.148
RTL8C | SID363994984 | 0.128
MTHFD2 | SID363997424 | 0.0795
OR5L2 | SID364005490 | 0.182
SV2A | SID363999143 | 0.0514
ASB4 | SID363999885 | 0.0974
ZNF671 | SID364003098 | 0.0774
GSTT4 | SID363999449 | 0.183
DENND1B | SID364001357 | 0.064
CNGB1 | SID363992581 | 0.132
KLK10 | SID363993934 | 0.474
GPBP1 | SID364002602 | 0.142
KLF7 | SID363994778 | 0.0696
SCG3 | SID363998367 | 0.0729
DDX23 | SID363995771 | 0.212
IL36A | SID363998855 | 0.0531
EVA1B | SID364000839 | 0.128
S100A5 | SID363994113 | 0.12
CAMTA1 | SID364005142 | 0.0949
QRICH1 | SID364000478 | 0.0747
CPB2 | SID363993085 | 0.175
ANTXR1 | SID364000829 | 0.193
SERPINE1 | SID363991920 | 0.048
TCF25 | SID363999234 | 0.268
EPHA3 | SID363996155 | 0.183
KATNBL1 | SID364002998 | 0.174
ZNF609 | SID364005147 | 0.075
UBE2D2 | SID363994455 | 0.0978
POLR3F | SID363997274 | 0.123
NR1H2 | SID363997835 | 0.0962
PLK2 | SID363997410 | 0.132
VGLL1 | SID363999994 | 0.12
CNNM4 | SID364001537 | 0.103
TRIT1 | SID364000416 | 0.0575
PTPN1 | SID363993983 | 0.0288
CIZ1 | SID363998074 | 0.192
PLPP2 | SID363994781 | 0.109
NFKBIB | SID363992293 | 0.113
CHD1 | SID363992555 | 0.116
SYT16 | SID364003693 | 0.171
CCDC3 | SID364003638 | 0.17
SAP30L | SID364002931 | 0.131
SFMBT2 | SID364005299 | 0.095
SHFL | SID364001024 | 0.0909
POT1 | SID363999503 | 0.0496
LRRC19 | SID364002593 | 0.0952

A stretch of the results above, as a working copy:
gene | PubChem SID | BNIP3L mRNA, set 1
QRICH1 | SID364000478 | 0.0747
CPB2 | SID363993085 | 0.175
ANTXR1 | SID364000829 | 0.193
SERPINE1 | SID363991920 | 0.048
TCF25 | SID363999234 | 0.268
EPHA3 | SID363996155 | 0.183
KATNBL1 | SID364002998 | 0.174
ZNF609 | SID364005147 | 0.075
